Read-outs that look alike come from different tables or passages of the source.
Columns and labels:
blood glucose level = assay: Hypoglycemic activity in obese diabetic mice (Table 1); type: in vivo, male viable yellow obese-diabetic mice; settings: Mus musculus, ip
Procedure: The hypoglycemic activity of the compounds of the present invention was determined by testing the efficacy of the compounds in vivo in male viable yellow obese-diabetic mice. The test procedure is described in detail below.
Test formulations were prepared by dissolving the test compound in a saline solution containing 2% Emulphor (a polyoxyethylated vegetable oil surfactant from GAP Corp.) to provide the dose level desired. Each test formulation was administered to six viable yellow obese-diabetic mice intraperitoneally at the beginning of the experiment. Blood glucose levels were determined immediately before the first dose and at 2 and 4 hours thereafter using glucose oxidase. A mean was taken of the 6 values obtained before the first dose and at the 2 and 4 hour intervals. In Table 1, Column 1 provides the example number of the test compound, Column 2 provides the dose level of compound tested, and Columns 3 and 4 provide a measurement of the test animal's blood glucose level 2 and 4 hours after test compound administration, respectively, as a percentage of the test animal' s pre-administration blood glucose level.

Protein sequences, listed by entry. Tags and fused reporters are not part of them. Residues count along the entry.
UniProt P07339, 65-161 limits assumed: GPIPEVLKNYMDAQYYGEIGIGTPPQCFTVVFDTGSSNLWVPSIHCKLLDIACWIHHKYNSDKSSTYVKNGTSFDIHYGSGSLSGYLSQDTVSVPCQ
UniProt P07339, 169-412 limits assumed: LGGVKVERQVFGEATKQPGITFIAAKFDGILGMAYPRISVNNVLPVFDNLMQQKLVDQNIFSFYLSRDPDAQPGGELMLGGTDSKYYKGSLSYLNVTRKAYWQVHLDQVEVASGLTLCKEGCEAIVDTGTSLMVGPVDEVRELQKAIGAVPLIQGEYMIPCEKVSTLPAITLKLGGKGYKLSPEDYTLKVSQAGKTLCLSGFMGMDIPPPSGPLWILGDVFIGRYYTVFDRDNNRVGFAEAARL

Human liver cathepsin D = target: T1, Human liver cathepsin D (Homo sapiens, UniProt P07339); assay: Cathepsin D inhibition, fluorometric assay (Tables 5 and 6); type: biochemical; settings: read-out: % Inhibition of Cathepsin D
T1 construct: purchased Athens Research and Technology, Athens, Ga; host or cells: human liver
Procedure: Human liver cathepsin D (Athens Research and Technology, Athens, Ga.) was diluted in assay buffer, 200 mM NaOAc, pH 4.5, 150 mM NaCl to 500 ng/mL and then 100 μL of this cathepsin D solution was added to each well of a 96 well plate with the exception of control wells which received just 100 μL of assay buffer. […] Blank and enzyme control wells each received 5 μL of the DMSO vehicle.
After incubation at 37° C. for 30 minutes, cathepsin D activity was terminated by the addition of 100 μL per well of 400 mU/mL microsomal leucine aminopeptidase (EC 3.4.11.2, Sigma, St. Louis, Mo.) in 1M Tris-HCl, pH 8.0.
Following a two hour incubation at 37° C., to allow the aminopeptidase to release the fluorophore, 7-amido-4-methylcoumarin (AMC) from the products of cathepsin D cleavage, the plates were again analyzed in the fluorometer. In order to check for potential false positives, i.e., inhibitors of microsomal leucine aminopeptidase, residual aminopeptidase activity was monitored directly in each well by the addition of 20 μL/well of 2.5 mM Leu-pNA (Bachem Biosciences, Philadelphia, Pa.) in 10% DMSO.

[1] = 2 h, read-out: Percent of Initial Blood Glucose Level After 2 hrs.
[2] = 4 h, read-out: Percent of Initial Blood Glucose Level After 4 hrs.

Q: What does the source list for `COc1ccc(C=C2SC(=S)NC2=O)cc1OC` [Example 60, 5-[(3,4-dimethoxyphenyl)methylene]-2-thioxo-4-thiazolidinone]?
A: response vs control in vivo at 25 mg/kg (blood glucose level; [1]): 87 ± 7%; response vs control in vivo at 50 mg/kg (blood glucose level; [1]): 85 ± 4%; response vs control in vivo at 25 mg/kg (blood glucose level; [2]): 89 ± 6%; response vs control in vivo at 50 mg/kg (blood glucose level; [2]): 78 ± 3%; inhibition at 4.15 µg/mL (stock) (Human liver cathepsin D): 45.5%; inhibition at 8.3 µg/mL (stock) (Human liver cathepsin D): 38%

Reference: US5523314A, “Compounds useful as hypoglycemic agents and for treating Alzheimer's disease” (priority 1994, dated 1996)
